Source: PubChem BioAssay
The other results are listed elsewhere or left out. Further columns of the screen follow, without active or inactive calls. For some of these results: Most of these compounds were active or inconclusive in the main read-out, so they are no random draw. Numbered stars: 1 amine (or outer) side, 2 acyl side, 3 side chain; on linkers, the order of the positions; unused ones are H or OH. Bridge positions count the residues as written; N and C are the ends. Square brackets hold non-standard residues; d marks the D form. Peptide text beside a SMILES is read from it. * marks the point of attachment. ξ: configuration not given here. ΔAla(Z-3-ureido) = NC(=O)N/C=C(\N)C(=O)O; X2 = NC1=NCCC(C(N[*:1])C(=O)[*:2])N1; ξβ3hOrn = NCCCC(N)CC(=O)*; Dap = NC[CH](N)C(=O)O

Experiments:
[1] = PubChem AID 1586; conditions: yeast two-hybrid polyglutamine protein interaction, reporter readout; measured here: averaged growth delta OD
[2] = enhancers of SMN2 over SMN1 splicing, cell-based, SMN2/SMN1 luciferase reporters (AID 1598); conditions: SMN2 vs SMN1 luciferase splicing reporter cells, at 10 µM; SMN1 luciferase ratio: measured here: SMN1 luciferase reporter average; SMN2 luciferase ratio: measured here: SMN2 luciferase reporter average, stronger effect = higher value
[3] = protection against mutant huntingtin cytotoxicity, PC12 cells, LDH release (AID 1610); conditions: PC12 mutant huntingtin toxicity, final LDH at 4 uM, stronger effect = lower value

| SMILES | signal change (36 h minus 0 h) [1] | SMN1 luciferase ratio [2] | SMN2 luciferase ratio [2] | normalised LDH release [3] |
| --- | --- | --- | --- | --- |
| CCN(CC)CCOCCOC(=O)C1(c2ccccc2)CCCC1 | 0.126 | 0.61 | 0.62 | 1.05 |
| Cc1cc(/C=C/c2ccc3cc(N(C)C)ccc3[n+]2C)c(C)n1-c1ccccc1 | 0.034 | 0.24 | 0.28 | 0.146 |
| CC(=O)NC1SCCC1=O (stereo not drawn) | 0.149 | 0.89 | 0.87 | 0.8 |
| CC1=NN(c2ccccc2)C(=O)C1 | 0.305 | 0.8 | 1.02 | 1.08 |
| CO[C@H]1C[C@H](O[C@H]2[C@H](C)[C@@H](OC3O[C@H](C)C[C@H](N(C)C)[C@H]3O)[C@@H](C)C[C@]3(CO3)C(=O)[C@H](C)[C@@H](O)[C@@H](C)[C@@H](C)OC(=O)[C@@H]2C)O[C@@H](C)[C@@H]1O (stereo partly drawn) | 0.157 | 0.97 | 0.93 | 0.809 |
| COc1ccc2[nH]cc(CCNC(C)=O)c2c1 | 0.135 | 0.92 | 0.84 | 0.997 |
| OCCN1CCN(CCCN2c3ccccc3Sc3ccc(C(F)(F)F)cc32)CC1 | 0.163 | 0.92 | 0.91 | 0.83 |
| CCn1cc(C(=O)O)c(=O)c2cc3c(cc21)OCO3 | 0.107 | 0.86 | 0.89 | 0.912 |
| CN(C)CCN(Cc1cccs1)c1ccccn1 | 0.346 | 0.92 | 0.94 | 1.22 |
| CC(=O)CCCCn1c(=O)c2c(ncn2C)n(C)c1=O | 0.0945 | 0.86 | 0.94 | 1.09 |
| O=c1c(O)c(-c2ccc(O)cc2O)oc2cc(O)cc(O)c12 | 0.0481 | 0.91 | 0.88 | 0.978 |
| NCCCC(N)CC(=O)NCC1NC(=O)C(CO)NC(=O)C(N)CNC(=O)C(C2CCN=C(N)N2)NC(=O)/C(=C/NC(N)=O)NC1=O (stereo not drawn) (H-[Dap]S[Dap](ξβ3hOrn)[ΔAla(Z-3-ureido)][X2]; lactam 1-C; configuration not given here) | 0.146 | 0.92 | 0.92 | 1.73 |
| NCCCCC(N)C(=O)NC(Cc1ccc(O)cc1)C(=O)NC(CCCCN)C(=O)O (stereo not drawn) (H-Lys-Tyr-Lys-OH; configuration not given here) | 0.189 | 0.89 | 1.02 | 1.17 |
| CN1CCC[C@@H]1CCO[C@](C)(c1ccccc1)c1ccc(Cl)cc1 | 0.107 | 1.1 | 0.9 | 1.08 |
| CC(=O)OCC(=O)[C@@]1(O)CCC2C3CCC4=CC(=O)C=CC4(C)C3[C@@H](O)C[C@@]21C (stereo partly drawn) | 0.0722 | 0.91 | 0.88 | 0.295 |
| CN[C@@H]1[C@H](O)[C@H](NC)[C@H]2O[C@@]3(O)C(=O)C[C@@H](C)O[C@H]3OC2[C@H]1O (stereo partly drawn) | 0.421 | 0.79 | 0.86 | 1.1 |
| COc1ccc(CCN2CCC(Nc3nc4ccccc4n3Cc3ccc(F)cc3)CC2)cc1 | 0.259 | 1.03 | 0.84 | 1.39 |
| O=C1NC(=O)C(c2ccccc2)(c2ccccc2)N1 | 0.124 | 0.91 | 0.84 | 0.953 |
| O=C(OCc1ccccc1)c1ccccc1 | 0.193 | 0.79 | 0.81 | 0.81 |

| SMILES | signal change (36 h minus 0 h) [1] | SMN1 luciferase ratio [2] | SMN2 luciferase ratio [2] | normalised LDH release [3] |
| --- | --- | --- | --- | --- |
| CC(C)NCC(O)COc1ccc(CC(N)=O)cc1 (stereo not drawn) | 0.181 | 0.88 | 1 | 0.902 |
| CCC1(C)CC(=O)NC1=O (stereo not drawn) | 0.172 | 0.94 | 0.95 | 0.697 |
| CC(=O)Nc1ccc(OC(=O)c2ccccc2O)cc1 | 0.149 | 0.86 | 1.01 | 0.444 |
| CC(N)C(=O)NC(Cc1ccccc1)C(=O)O (stereo not drawn) | 0.197 | 0.86 | 0.84 | 1.03 |
| NNc1nncc2ccccc12 | 0.0557 | 0.47 | 0.58 | 1.05 |
| CC(=O)Oc1cccc(O)c1 | 0.251 | 1.05 | 1.04 | 0.864 |
| NC(=O)c1ccc[n+]([C@@H]2O[C@H](COP(=O)([O-])OP(=O)(O)OC[C@H]3O[C@@H](n4cnc5c(N)ncnc54)[C@H](O)[C@@H]3O)[C@@H](O)[C@H]2O)c1 | 0.165 | 0.87 | 0.91 | 0.942 |
| NCCc1ccc(O)c(O)c1 | 0.0757 | 0.99 | 1.07 | 1.14 |
| C1N2CN3CN1CN(C2)C3 | 0.209 | 1.02 | 0.87 | 1.12 |
| Clc1ccccc1C(c1ccccc1)(c1ccccc1)n1ccnc1 | 0.186 | 0.89 | 0.86 | 1.25 |
| NCC1OC(OC2C(N)CC(N)C(OC3OC(CO)C(O)C(N)C3O)C2O)C(N)C(O)C1O (stereo not drawn) | 0.253 | 0.91 | 0.94 | 1.12 |
| Oc1cc(O)c2c(c1)O[C@H](c1ccc(O)c(O)c1)[C@@H](O)C2 | 0.254 | 0.93 | 0.82 | 0.956 |
| O=C1c2c(O)ccc(O)c2C(=O)c2c(NCCNCCO)ccc(NCCNCCO)c21 | 0.144 | 0.06 | 0.31 | 0.744 |
| C[N+]1(C)C2CC[C@H]1CC(OC(=O)C(O)c1ccccc1)C2 (stereo partly drawn) | 0.223 | 0.94 | 0.92 | 0.872 |
| Cc1cc(C(C)(C)CC(C)(C)C)ccc1OCCOCC[N+](C)(C)Cc1ccccc1 | -0.0018 | 0.34 | 0.44 | 0.702 |
| COC1=C2C[C@@H](C)C[C@H](OC)[C@H](O)[C@@H](C)/C=C(\C)[C@@H](OC(N)=O)[C@H](OC)/C=C\C=C(/C)C(=O)NC(=CC1=O)C2=O | 0.182 | 1.06 | 1.33 | 1.1 |
| CCC[C@@H]1C[C@@H](C(=O)N[C@H]([C@H]2O[C@H](SC)[C@H](O)[C@@H](O)[C@H]2O)[C@H](C)O)N(C)C1 | 0.101 | 0.93 | 0.92 | 1.46 |
| COC(=O)[C@H](c1ccccc1Cl)N1CCc2sccc2C1 | 0.276 | 0.89 | 0.89 | 0.564 |

Record cards, from the list above. Values in the order: signal change (36 h minus 0 h) [1]	SMN1 luciferase ratio [2]	SMN2 luciferase ratio [2]	normalised LDH release [3]
O=C1NC(=O)C(c2ccccc2)(c2ccccc2)N1 is listed as 0.124	0.91	0.84	0.953
O=C(OCc1ccccc1)c1ccccc1 is listed as 0.193	0.79	0.81	0.81
